Reference: the supplement of paper PMC5949888
Most values lie at the floor of the assay. Slopes are relative: functional sequences can read slightly below zero.

These substances were tested on Saccharomyces cerevisiae PS128 hsf1 delta, HSF1(1-493) fusion (assay: growth estimate (transactivation domain function in HSF1 fusion, heat-shock survival) (a.u. (slope of normalised read count over time)); higher = stronger growth at 37°C, i.e. more transactivation activity). Settings: library: random library.

Substance | growth estimate
LRCWRCYARFRKTWGLLTLD | < -0.25
ESALVKSKPITVKVWQSKTS | < -0.25
RKTCTRSSKSTPG | < -0.25
MKTGGMTGFIIPAR | < -0.25
VLRHLE | < -0.25
VKYAPGSFREYHFIFLQTWR | < -0.25
HRGTESS | < -0.25
LREILMGGG | < -0.25
VTRVFAADLITFKRPSERDR | < -0.25
VKAVGFCAFGTLQGEMCARS | < -0.25
RDSEFRHCVAHSFFDGLVAA | < -0.25
GRLVFA | -0.126
KPKFSRVEAGHRLIAIARAF | -0.228
IAGRWMLVSEGCLEILAGEQ | < -0.25
CIEGGFRLKWIKGNTY | < -0.25
FLSRSALRRSALI | < -0.25
AGCARAVLFARRNQVSEDDT | < -0.25
SFLQIARPTMCTGYNTVRNT | < -0.25
EINVKG | < -0.25
PFRLGRGSKSTSSHVERT | < -0.25
ECYSTTKVQRHVTRRPRIST | -0.241
ESHVRSFSAW | < -0.25
AGTASYRGANSVAKSIRSRH | < -0.25

Substance | growth estimate
GHYGLDTHARPAPLIGLVVS | < -0.25
LRLTASRGGCR | < -0.25
TSHAYVRRPRLNGSSRFAKD | < -0.25
IVFYRGVHRR | < -0.25
LGLRP | < -0.25
YLPHEEGVLDD | < -0.25
DNNVIHVHGAAPFQKVANRP | < -0.25
RGALDIPR | < -0.25
DSGTGWCCLRLTTTGGTRPF | < -0.25
DRGSREHVTA | < -0.25
ARLPFKPVSGGWRRTTWRRA | < -0.25
FVMFRTDSASRT | < -0.25
FVYPFGWHRPTRSL | < -0.25
SVCGEFTASRLVGRPHA | < -0.25
YAGSLISTDRQQVGLRIYCL | < -0.25
FLEHWQNQTGGF | < -0.25
IHSPL | < -0.25
FDFRYG | < -0.25
DGMACASCDNHPNRMNESMP | < -0.25
SRFLAYWSVERF | -0.0727
LRFFRPARA | < -0.25
ECHSINRGSVD | < -0.25
TAGQHLVFPISP | < -0.25

Substance | growth estimate
PSVSCQSALTIKISS | < -0.25
CSFGPL | < -0.25
SLIPSNRSAVSSRRYSGGLF | < -0.25
LVFRQIQRRGAWAGTC | < -0.25
LAVKTAYKLMPLLATIRFSA | < -0.25
YMLVGRNEQRYWGRTRCIEI | < -0.25
TISERAPNQM | < -0.25
DCMLRHMGCVYRATRSHRMQ | -0.243
NVAGKKLGNSTAEIHHRIRQ | < -0.25
YGCSRHVPALRSECSHWSAS | < -0.25
SLGRDSSKVNSHQWGVIRR | -0.243
PHSPIGLPYW | < -0.25
PWGV | < -0.25
MFGVGSNQDGYIMIDAFYLR | < -0.25
GGVSALKAEGVCSL | < -0.25
CVSSQSNTDNRARTEFGAVV | < -0.25
YGRQPENRDCQRYTTLRRLY | < -0.25
LGHGLGSCQSDSVRAVGPDL | < -0.25
GCGRCWFGRTN | < -0.25
RTKFACPR | < -0.25
VCQIRN | < -0.25
YSRSCSWAGSSLGFRHMLDL | < -0.25
VWGYRTTAVGPWGQVLIRRC | < -0.25

Nothing new here: an excerpt of the list.
Substance | growth estimate
MFGVGSNQDGYIMIDAFYLR | < -0.25
GGVSALKAEGVCSL | < -0.25
CVSSQSNTDNRARTEFGAVV | < -0.25

Next part

Substance | growth estimate
RGCQVLYTNKAP | < -0.25
REVQTKYGRRRISEGRSPKV | < -0.25
VWAHKRSLFGLQASMAFTRA | < -0.25
LIIGPRRERE | < -0.25
SATDRNDSRLLRWHFLIRRL | < -0.25
EYCPGVEIRTVKHRIFILKN | < -0.25
CTCFSAVIHER | < -0.25
LSNACRVTWEIRARLFIGMF | < -0.25
GMFI | < -0.25
SLACRRPNSISMGWHDTGGH | < -0.25
FLHITWSAIFRRR | < -0.25
AIKM | < -0.25
RTADPPLRRWPRGLGTLSPG | < -0.25
VPSRGMGTPEIVICVSEVCG | < -0.25
LCGDIKCRTDVV | -0.222
PGHSVKTKAEAVTGSEVRQS | < -0.25
LTSESLAHLGTL | < -0.25
KVINR | < -0.25
ERGVLELS | < -0.25
STVRLLSRRLHAGSVRASPD | < -0.25
RGKYPRDRLAHAYSEGTERW | < -0.25
LTTGQDFSGRRMPRKYRDRM | < -0.25
IVMGDNPAGVLCGTGPHHSS | -0.231

Substance | growth estimate
QGVDER | < -0.25
SQPRSGQSRFAPV | < -0.25
KPASLASLCVMGQRFGLGAH | < -0.25
LRHGCRAVLA | < -0.25
AKDQPYQRLRESGHQGMNCA | < -0.25
SVSVTVQVVKIFGPTAP | < -0.25
WVAG | < -0.25
SWLSMVNVR | < -0.25
ISGGGVSLLFLNQDR | < -0.25
GQKAGVSSGEAEVVLQDYQC | < -0.25
GGLSRDPDPRRYSNAFTIAI | < -0.25
NTEALAR | < -0.25
ECI | < -0.25
VRQLFGTRISL | < -0.25
KLASSLSSQSSPMSEP | -0.243
ISKLAGLVATVCGYVLQLPV | < -0.25
RLLILF | < -0.25
YDQVLKGVVRLKVRVKTGPG | < -0.25
CPGERGCQLLFSQSPQASGY | < -0.25
STGVLPD | < -0.25
EIRITYYAQRYLRVCHGKAN | < -0.25
RYNVHSNASELGSAAWTEGR | < -0.25
AMPHGSSGDIGVYLHPKIHT | < -0.25

Two entries drawn at random from those above:
Substance | growth estimate
REVQTKYGRRRISEGRSPKV | < -0.25
SLIPSNRSAVSSRRYSGGLF | < -0.25

Going on with the list:

Substance | growth estimate
PPPCHRSWLVPGTKSRRTKL | < -0.25
MFSHIAWSERAVSRDSRPRL | < -0.25
TLAKERQ | < -0.25
PAYDTALYRFAL | < -0.25
RIPLGTSAIPGPVRL | < -0.25
IKGANLVPAVWPVVTRSGRG | < -0.25
ALNDKLIGVVESGEIIHTRV | < -0.25
STRGAIHNPGPHLRQGLLN | < -0.25
GEDLYGSLGRRVD | < -0.25
VSCTLTAASVRMTVGSGSMK | < -0.25
LRYASGTGILATR | < -0.25
TFT | 0.207
HRSVISTQL | -0.0616
VPRTDYGPPVVQFTVLFKAA | < -0.25
PVDIGNGRLIEKGACI | < -0.25
YCAAYRAIHVELTTKGNRPY | < -0.25
ATAR | < -0.25
CLTDSVFSC | < -0.25
SRYLR | < -0.25
HHLFMI | < -0.25
ELRGSMY | < -0.25
TNLIN | < -0.25
DIVTHLF | < -0.25

Substance | growth estimate
SGLESSKMGLGAT | < -0.25
LELFQAPSEVNDKTEQRIKR | < -0.25
VGMTTLLCQPPIGNH | < -0.25
GYGGAAREDPQF | < -0.25
KSLA | < -0.25
IPVRVRPGLVSNNPNTPVHA | < -0.25
FIRLSLGGGSSAMWSIRICC | < -0.25
VRLIG | -0.174
AGHR | < -0.25
GTCDEANHGGRGRPSRGLAV | < -0.25
TLRGSPGPNSHSV | < -0.25
SKYVRQFWNDSSCSDANAAY | -0.229
GGMTWGV | < -0.25
HLVSHA | < -0.25
PSGAGLSGCLKFTLSPGKRQ | -0.231
TETCLL | < -0.25
KSDALSIDRPFGEFLRIKAL | < -0.25
PQRGKSPVLTVRREHVEDRL | < -0.25
SLKAYGMTGGIRRMAH | < -0.25
GANTEGCFPEPSRGLVLSDG | < -0.25
YLSHKSKLVSEFLVDNNLYI | < -0.25
